System: zebrafish larvae
Details: 10 d.p.f.
Method: Initial drug exposure assays were performed in larval zebrafish to identify a sufficiently high concentration of drug that could be detected by liquid chromatography/tandem mass spectrometry (LC/MS/MS) analysis without causing toxicity. Maximum tolerated concentration (MTC) was determined using n=6 larvae per group. […] Compounds of interest were prepared as 2 mg/ml stocks in dimethyl sulfoxide (DMSO). […] Larvae were incubated in the drug for 1 hour at room temperature then anaesthetised on ice. For whole uptake analysis, anaesthetised larvae were transferred to 1.5 ml microfuge tubes and all excess liquid was removed. 100 µl ice cold PBS was added, samples were briefly centrifuged and all excess liquid was removed. For brain versus body uptake analysis, larvae were anaesthetised by chilling prior to decapitation using fine iridectomy scissors and No. 5 watchmaker forceps. Head and body tissue samples were collected in separate microfuge tubes on ice and excess liquid removed. 100 µl ice cold PBS was added and samples were briefly centrifuged and all excess liquid removed. The weight of the tissue sample was measured and the samples were frozen at -20 °C prior to extraction for LC/MS/MS.
Test compound was added to the well containing 50 µg/ml verapamil and larvae were incubated for a further hour at room temperature prior to tissue collection as described. […]

## CN1[C@@H]2C[C@@H](OC(=O)[C@H](CO)c3ccccc3)C[C@H]1[C@@H]1O[C@@H]12 [Scopolamine]
  distribution in head and trunk samples: equal concentrations in head and trunk samples

Source: publication PMC3797749, “Functional Characterisation of the Maturation of the Blood-Brain Barrier in Larval Zebrafish” (PLoS ONE, 2013)
